According to publication PMC8778023:
Results are given in words; binding and its absence hold for the method and conditions named. For some of these results: Binding seen in cells or lysates may run through a third protein. Some results given as binding are weak or reduced against the parent protein; the word gives no strength. Sequences can lack the tags named with a protein. One block for each binder: values may come before it.

Key:
[1] = biological target: T1, ATL9 fused with the C-terminal portion (amino acids 156-239) of YFP (pDEST-VYCE-ATL9) (Arabidopsis thaliana) (UniProt O64763); assay: split reporter; BiFC with split YFP (pDEST-VYCE and pDEST-VYNE); co-infiltrated into Nicotiana benthamiana leaves by Agrobacterium GV3101; confocal imaging 36 h after infiltration
T1 sequence: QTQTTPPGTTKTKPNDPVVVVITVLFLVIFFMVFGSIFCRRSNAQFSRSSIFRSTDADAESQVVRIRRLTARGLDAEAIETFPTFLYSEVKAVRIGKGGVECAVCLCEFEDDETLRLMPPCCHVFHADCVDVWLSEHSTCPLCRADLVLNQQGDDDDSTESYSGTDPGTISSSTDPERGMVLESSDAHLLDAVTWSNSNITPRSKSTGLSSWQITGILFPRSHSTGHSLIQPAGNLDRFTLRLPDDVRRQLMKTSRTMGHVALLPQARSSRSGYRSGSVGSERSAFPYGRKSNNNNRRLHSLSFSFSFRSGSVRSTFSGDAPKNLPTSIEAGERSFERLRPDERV

[2] = biological target: T2, ATL9 (E3 ubiquitin ligase, Arabidopsis thaliana), Gal4 binding domain fusion from pGBKT7-ATL9 (Arabidopsis thaliana) (UniProt O64763); assay: two-hybrid; Matchmaker GAL4 system (Clontech); bait pGBKT7-ATL9 in Y2H Gold mated with preys in pGADT7 in Y187; selection on SD/-Ade/-His/-Leu/-Trp/X-α-gal plates, 3-5 days at 30 °C, blue colonies
T2 sequence: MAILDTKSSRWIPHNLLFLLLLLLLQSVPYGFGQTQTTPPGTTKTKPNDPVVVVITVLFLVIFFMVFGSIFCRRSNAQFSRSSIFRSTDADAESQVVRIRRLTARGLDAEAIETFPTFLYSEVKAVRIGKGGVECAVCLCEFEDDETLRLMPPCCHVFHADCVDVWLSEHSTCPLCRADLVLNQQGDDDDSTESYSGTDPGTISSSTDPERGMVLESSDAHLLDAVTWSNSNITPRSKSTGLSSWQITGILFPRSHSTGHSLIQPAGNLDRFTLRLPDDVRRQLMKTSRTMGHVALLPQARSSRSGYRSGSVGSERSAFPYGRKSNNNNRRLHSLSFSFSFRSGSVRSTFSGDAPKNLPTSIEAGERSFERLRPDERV

- binding [2]: binds
B2: Plant defensin 1.2 (PDF1.2), Gal4 activation domain fusion from pGADT7-PDF1.2 (protein, UniProt Q9FI23 1-80)
chain: MAKFASIITLIFAALVLFAAFDAPAMVEAQKLCEKPSGTWSGVCGNSNACKNQCINLEGAKHGSCNYVFPAHKCICYVPC

- binding [2]: binds
B3: Pathogen and circadian controlled 1 (PCC1), Gal4 activation domain fusion from pGADT7-PCC1 (protein, UniProt Q94C26 1-81)
chain: MNQSAQNYFSVQKPSETSSGPYTSPPPIGYPTRDAVVGDPPAAAVETNSKGVNPEAIMSCFSTCMECIFCCGVCSSLCTSE

More lines, now with the values behind:

B1: PDF1.2 fused with the N-terminal portion (amino acids 1-173) of YFP (pDEST-VYNE-PDF1.2) (protein, UniProt Q9FI23 30-80)
chain: QKLCEKPSGTWSGVCGNSNACKNQCINLEGAKHGSCNYVFPAHKCICYVPC
- binding [1]: binds

B4: PCC1 fused with the N-terminal portion (amino acids 1-173) of YFP (pDEST-VYNE-PCC1) (protein, UniProt Q94C26 1-81)
chain: B3 chain
- binding [1]: binds
